According to the supplement of paper PMC12819154, “High-throughput peptide-centric local stability assay extends protein–ligand identification to membrane proteins, tissues and bacteria” (Nature Structural & Molecular Biology, 2025):
Some of the results follow. Small differences around the control level are noise.

Sequences of proteins named here, by UniProt entry; tags and fusion partners are left off. A change or cut given only in a name is not applied to a line headed by its entry.
UniProt Q8IWF2: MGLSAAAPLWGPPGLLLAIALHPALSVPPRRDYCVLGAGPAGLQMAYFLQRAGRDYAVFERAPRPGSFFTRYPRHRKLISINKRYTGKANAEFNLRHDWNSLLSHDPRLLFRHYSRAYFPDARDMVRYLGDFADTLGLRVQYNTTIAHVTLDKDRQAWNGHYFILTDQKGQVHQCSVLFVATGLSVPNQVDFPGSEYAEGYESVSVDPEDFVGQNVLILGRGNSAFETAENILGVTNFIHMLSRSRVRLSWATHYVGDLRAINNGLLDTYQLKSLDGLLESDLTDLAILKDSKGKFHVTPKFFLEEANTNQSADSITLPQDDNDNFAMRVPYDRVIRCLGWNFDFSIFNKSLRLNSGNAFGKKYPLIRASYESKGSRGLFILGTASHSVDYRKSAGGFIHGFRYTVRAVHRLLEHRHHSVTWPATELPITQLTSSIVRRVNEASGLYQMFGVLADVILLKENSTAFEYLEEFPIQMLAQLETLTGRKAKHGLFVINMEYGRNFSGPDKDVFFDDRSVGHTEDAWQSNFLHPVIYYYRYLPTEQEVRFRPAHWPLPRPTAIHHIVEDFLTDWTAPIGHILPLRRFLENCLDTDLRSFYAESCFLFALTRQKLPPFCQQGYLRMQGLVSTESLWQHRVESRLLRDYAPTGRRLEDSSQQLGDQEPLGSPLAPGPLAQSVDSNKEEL
UniProt Q8IX90, whole entry: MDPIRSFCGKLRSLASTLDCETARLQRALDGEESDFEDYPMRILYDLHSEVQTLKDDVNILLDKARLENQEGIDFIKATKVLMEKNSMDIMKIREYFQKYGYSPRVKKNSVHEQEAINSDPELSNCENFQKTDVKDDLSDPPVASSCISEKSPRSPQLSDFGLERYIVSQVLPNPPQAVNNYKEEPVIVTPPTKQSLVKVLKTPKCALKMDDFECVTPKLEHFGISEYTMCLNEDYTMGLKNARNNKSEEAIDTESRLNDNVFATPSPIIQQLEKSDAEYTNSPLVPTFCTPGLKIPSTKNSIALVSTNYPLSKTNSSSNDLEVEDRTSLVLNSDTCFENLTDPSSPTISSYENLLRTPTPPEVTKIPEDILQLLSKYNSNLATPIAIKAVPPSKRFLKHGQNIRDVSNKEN
UniProt Q8IX07: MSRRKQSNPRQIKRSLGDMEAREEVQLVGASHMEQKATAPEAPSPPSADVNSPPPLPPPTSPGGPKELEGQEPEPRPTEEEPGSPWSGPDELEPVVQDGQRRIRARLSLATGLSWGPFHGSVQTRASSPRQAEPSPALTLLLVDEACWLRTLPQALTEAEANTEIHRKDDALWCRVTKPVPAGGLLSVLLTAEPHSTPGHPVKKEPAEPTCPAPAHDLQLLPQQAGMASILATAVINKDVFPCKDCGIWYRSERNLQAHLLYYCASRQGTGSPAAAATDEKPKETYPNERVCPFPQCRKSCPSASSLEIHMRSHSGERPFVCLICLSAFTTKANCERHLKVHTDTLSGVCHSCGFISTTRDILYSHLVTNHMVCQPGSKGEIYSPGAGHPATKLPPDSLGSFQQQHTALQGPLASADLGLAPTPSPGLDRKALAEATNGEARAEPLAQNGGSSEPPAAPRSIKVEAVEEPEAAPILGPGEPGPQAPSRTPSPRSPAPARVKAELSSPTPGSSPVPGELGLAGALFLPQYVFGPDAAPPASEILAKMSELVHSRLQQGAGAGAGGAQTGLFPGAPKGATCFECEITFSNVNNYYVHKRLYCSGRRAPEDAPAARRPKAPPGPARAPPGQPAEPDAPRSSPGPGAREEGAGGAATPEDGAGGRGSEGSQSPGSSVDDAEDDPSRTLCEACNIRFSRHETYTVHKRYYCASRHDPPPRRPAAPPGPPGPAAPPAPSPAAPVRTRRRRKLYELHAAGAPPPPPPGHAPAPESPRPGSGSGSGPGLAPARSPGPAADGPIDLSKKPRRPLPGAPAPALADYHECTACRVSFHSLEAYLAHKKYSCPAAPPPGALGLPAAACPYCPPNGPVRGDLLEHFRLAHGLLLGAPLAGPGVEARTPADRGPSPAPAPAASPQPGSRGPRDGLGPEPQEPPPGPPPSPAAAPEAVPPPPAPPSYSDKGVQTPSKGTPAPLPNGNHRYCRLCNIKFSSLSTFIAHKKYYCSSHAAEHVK
UniProt Q86W92: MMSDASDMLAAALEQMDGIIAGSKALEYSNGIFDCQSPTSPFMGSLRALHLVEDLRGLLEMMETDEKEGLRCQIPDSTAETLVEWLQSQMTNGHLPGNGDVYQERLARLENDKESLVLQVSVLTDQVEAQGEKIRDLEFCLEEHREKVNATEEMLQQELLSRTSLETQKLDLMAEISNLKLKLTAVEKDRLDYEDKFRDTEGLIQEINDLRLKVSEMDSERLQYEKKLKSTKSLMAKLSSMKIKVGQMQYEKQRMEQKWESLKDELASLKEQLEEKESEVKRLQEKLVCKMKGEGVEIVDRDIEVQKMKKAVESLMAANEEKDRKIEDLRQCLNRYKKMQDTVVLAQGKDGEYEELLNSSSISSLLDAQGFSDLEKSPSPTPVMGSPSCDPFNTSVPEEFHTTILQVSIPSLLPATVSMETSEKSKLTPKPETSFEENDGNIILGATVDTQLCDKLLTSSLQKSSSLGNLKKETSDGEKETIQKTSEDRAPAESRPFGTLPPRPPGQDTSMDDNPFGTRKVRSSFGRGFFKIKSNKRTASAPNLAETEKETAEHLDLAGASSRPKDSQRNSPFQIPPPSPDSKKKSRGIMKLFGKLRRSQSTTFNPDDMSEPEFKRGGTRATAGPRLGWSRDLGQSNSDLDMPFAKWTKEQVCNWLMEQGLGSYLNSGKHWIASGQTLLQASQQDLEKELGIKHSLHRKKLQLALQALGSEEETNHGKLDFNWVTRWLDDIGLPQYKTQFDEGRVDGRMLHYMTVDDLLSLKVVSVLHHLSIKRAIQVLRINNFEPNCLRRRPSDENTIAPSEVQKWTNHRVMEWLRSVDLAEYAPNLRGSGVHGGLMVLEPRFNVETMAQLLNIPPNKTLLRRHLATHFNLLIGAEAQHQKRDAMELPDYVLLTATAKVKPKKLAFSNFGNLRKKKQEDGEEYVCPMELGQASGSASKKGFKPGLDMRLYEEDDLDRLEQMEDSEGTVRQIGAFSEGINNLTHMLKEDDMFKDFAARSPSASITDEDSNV
UniProt Q86X02: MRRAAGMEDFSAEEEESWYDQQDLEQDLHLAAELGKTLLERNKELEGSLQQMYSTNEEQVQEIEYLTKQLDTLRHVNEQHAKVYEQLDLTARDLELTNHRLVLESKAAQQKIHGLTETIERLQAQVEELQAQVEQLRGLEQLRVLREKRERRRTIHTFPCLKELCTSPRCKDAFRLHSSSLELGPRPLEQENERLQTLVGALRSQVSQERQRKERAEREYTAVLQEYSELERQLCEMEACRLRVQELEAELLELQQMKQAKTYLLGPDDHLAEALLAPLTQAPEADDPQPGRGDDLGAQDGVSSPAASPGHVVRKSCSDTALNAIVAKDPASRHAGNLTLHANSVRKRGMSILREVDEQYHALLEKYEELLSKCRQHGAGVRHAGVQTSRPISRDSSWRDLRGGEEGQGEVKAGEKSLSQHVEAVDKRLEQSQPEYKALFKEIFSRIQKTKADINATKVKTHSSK
UniProt Q8N0Z6: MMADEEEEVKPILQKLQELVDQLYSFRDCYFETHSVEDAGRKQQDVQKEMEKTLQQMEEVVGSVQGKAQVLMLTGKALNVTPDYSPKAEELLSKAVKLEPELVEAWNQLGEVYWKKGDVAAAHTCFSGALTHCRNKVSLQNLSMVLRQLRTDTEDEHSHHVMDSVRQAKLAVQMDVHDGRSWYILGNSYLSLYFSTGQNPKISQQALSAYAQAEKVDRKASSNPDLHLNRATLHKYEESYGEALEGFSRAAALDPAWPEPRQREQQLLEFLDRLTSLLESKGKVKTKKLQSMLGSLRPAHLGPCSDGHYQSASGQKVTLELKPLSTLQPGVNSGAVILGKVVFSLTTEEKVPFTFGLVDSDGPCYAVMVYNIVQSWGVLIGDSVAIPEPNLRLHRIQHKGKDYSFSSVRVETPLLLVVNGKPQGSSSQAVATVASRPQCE
UniProt Q8IWF6: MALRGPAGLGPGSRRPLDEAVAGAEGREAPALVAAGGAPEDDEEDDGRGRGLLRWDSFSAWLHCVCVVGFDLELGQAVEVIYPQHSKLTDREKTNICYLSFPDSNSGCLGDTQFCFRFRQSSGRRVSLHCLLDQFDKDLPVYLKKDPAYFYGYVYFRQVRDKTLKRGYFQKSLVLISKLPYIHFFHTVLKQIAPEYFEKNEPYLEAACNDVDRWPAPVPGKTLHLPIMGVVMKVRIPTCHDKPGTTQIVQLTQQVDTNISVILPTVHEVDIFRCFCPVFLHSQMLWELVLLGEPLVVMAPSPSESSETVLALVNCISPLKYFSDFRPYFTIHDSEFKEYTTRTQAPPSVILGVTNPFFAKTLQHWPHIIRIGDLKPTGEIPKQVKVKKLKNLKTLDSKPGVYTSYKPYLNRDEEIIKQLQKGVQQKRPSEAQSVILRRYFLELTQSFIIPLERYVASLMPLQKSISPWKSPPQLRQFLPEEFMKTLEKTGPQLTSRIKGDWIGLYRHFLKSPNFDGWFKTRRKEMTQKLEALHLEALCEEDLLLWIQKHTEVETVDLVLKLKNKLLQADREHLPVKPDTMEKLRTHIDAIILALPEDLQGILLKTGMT
UniProt Q86VR2, whole entry: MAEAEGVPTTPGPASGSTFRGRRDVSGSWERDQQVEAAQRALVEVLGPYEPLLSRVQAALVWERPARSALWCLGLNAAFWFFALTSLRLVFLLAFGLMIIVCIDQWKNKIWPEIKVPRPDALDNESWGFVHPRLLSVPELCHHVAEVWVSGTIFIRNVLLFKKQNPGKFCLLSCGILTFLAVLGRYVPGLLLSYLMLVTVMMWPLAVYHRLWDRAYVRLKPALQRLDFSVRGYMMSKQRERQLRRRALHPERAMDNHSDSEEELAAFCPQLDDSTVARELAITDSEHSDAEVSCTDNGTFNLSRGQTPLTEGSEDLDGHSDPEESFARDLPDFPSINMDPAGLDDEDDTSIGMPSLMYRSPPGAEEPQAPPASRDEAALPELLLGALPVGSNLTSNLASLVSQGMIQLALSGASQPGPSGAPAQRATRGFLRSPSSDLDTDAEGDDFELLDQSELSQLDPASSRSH
UniProt Q8IZD4: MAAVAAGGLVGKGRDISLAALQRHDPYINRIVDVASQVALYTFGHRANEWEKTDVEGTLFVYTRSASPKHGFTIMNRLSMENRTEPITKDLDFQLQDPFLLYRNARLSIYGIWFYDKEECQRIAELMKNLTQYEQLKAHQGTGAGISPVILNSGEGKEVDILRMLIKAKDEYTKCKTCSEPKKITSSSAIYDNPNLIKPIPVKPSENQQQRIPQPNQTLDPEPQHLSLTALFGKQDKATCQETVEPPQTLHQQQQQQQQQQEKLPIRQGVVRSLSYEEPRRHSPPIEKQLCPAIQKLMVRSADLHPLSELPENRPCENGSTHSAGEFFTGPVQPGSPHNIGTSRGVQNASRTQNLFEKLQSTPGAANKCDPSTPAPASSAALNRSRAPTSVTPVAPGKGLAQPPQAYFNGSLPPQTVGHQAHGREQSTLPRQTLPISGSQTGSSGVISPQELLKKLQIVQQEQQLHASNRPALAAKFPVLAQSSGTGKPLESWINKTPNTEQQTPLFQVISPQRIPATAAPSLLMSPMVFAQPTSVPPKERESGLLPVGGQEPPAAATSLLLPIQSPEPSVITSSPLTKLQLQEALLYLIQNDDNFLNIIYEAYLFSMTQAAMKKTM
UniProt Q8IY57: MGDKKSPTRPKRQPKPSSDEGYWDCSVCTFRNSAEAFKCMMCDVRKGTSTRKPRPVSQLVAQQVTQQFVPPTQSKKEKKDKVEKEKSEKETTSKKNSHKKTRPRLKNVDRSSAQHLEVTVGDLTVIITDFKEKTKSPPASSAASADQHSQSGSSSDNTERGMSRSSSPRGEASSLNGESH
UniProt Q8IVV7: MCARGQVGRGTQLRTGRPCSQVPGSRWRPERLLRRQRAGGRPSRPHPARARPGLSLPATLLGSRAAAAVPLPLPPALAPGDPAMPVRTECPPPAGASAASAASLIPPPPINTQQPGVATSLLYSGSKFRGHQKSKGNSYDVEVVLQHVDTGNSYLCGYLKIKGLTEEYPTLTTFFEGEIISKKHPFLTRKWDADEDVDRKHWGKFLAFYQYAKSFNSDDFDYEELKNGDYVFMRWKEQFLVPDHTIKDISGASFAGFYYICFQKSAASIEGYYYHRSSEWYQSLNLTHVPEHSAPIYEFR

What follows are targets tested with Cc1nc(Nc2ncc(C(=O)Nc3c(C)cccc3Cl)s2)cc(N2CCN(CCO)CC2)n1 [dasatinib] (assay: log2 fold change of tryptic peptide abundance, ligand vs vehicle (limited proteolysis) (log2 ratio); higher = more trypsin-susceptible (destabilized)). Conditions: ligand concentration: 5 uM; sample: K562 cleared lysate.

Target | log2 fold change
FOXRED2 (peptide sequence: HDWNSLLSHDPR, peptide start residue: 97) (UniProt Q8IWF2) | 0.0221
UniProt Q8IX90 (peptide sequence: EEPVIVTPPTK, peptide start residue: 184) | 0.342
ZFPM1 (peptide sequence: DCGIWYR, peptide start residue: 245) (UniProt Q8IX07) | 0.526
PPFIBP1 (peptide sequence: SSSLGNLKK, peptide start residue: 464) (UniProt Q86W92) | -0.301
CDR2L (peptide sequence: GGEEGQGEVK, peptide start residue: 403) (UniProt Q86X02) | 0.502
TTC5 (peptide sequence: ISQQALSAYAQAEKVDRK, peptide start residue: 202) (UniProt Q8N0Z6) | 0.248
UniProt Q8IWF6 (peptide sequence: SPNFDGWFK, peptide start residue: 511) | 0.15
UniProt Q86VR2 (peptide sequence: VPRPDALDNESWGFVHPR, peptide start residue: 116) | -0.0657
DCP1B (peptide sequence: DISLAALQR, peptide start residue: 15) (UniProt Q8IZD4) | -0.391
YAF2 (peptide sequence: RQPKPSSDEGYWDCSVCTFR, peptide start residue: 12) (UniProt Q8IY57) | 0.465
GID4 (peptide sequence: TGRPCSQVPGSR, peptide start residue: 15) (UniProt Q8IVV7) | 0.208

Taken from above:
PPFIBP1 (peptide sequence: SSSLGNLKK, peptide start residue: 464) (UniProt Q86W92) – log2 fold change: -0.301
GID4 (peptide sequence: TGRPCSQVPGSR, peptide start residue: 15) (UniProt Q8IVV7) – log2 fold change: 0.208
